{
  "source": "ChEMBL document CHEMBL1157379",
  "about": "“Transcriptional response of Candida parapsilosis following exposure to farnesol” (2007)",
  "format_in_all_cases": "functional",
  "key": {"Candida parapsilosis [1]": {"test_system": "Candida parapsilosis", "assay": "Increase in CGD gene ortholog accession number orf19.6393 expression in Candida parapsilosis CLIB214 at 50 uM after 2 hrs by microarray based transcriptional profiling relative to control"}, "Candida parapsilosis [2]": {"test_system": "Candida parapsilosis", "assay": "Increase in CGD gene ortholog accession number orf19.7256 expression in Candida parapsilosis CLIB214 at 50 uM after 2 hrs by microarray based transcriptional profiling relative to control"}, "Candida parapsilosis [3]": {"test_system": "Candida parapsilosis", "assay": "Decrease in CGD gene ortholog accession number orf19.6637 expression in Candida parapsilosis CLIB214 at 50 uM after 2 hrs by microarray based transcriptional profiling relative to control"}, "Candida parapsilosis [4]": {"test_system": "Candida parapsilosis", "assay": "Increase in CGD gene ortholog accession number orf19.1195 expression in Candida parapsilosis CLIB214 at 50 uM after 2 hrs by microarray based transcriptional profiling relative to control"}, "Candida parapsilosis [5]": {"test_system": "Candida parapsilosis", "assay": "Decrease in CGD gene ortholog accession number orf19.3655 expression in Candida parapsilosis CLIB214 at 50 uM after 2 hrs by microarray based transcriptional profiling relative to control"}, "Candida parapsilosis [6]": {"test_system": "Candida parapsilosis", "assay": "Increase in CGD gene ortholog accession number orf19.1335 expression in Candida parapsilosis CLIB214 at 50 uM after 2 hrs by microarray based transcriptional profiling relative to control"}, "Candida parapsilosis [7]": {"test_system": "Candida parapsilosis", "assay": "Decrease in CGD gene ortholog accession number orf19.1158 expression in Candida parapsilosis CLIB214 at 50 uM after 2 hrs by microarray based transcriptional profiling relative to control"}, "Candida parapsilosis [8]": {"test_system": "Candida parapsilosis", "assay": "Decrease in CGD gene ortholog accession number orf19.6254 expression in Candida parapsilosis CLIB214 at 50 uM after 2 hrs by microarray based transcriptional profiling relative to control"}, "Candida parapsilosis [9]": {"test_system": "Candida parapsilosis", "assay": "Increase in CGD gene ortholog accession number orf19.4371 expression in Candida parapsilosis CLIB214 at 50 uM after 2 hrs by microarray based transcriptional profiling relative to control"}, "Candida parapsilosis [10]": {"test_system": "Candida parapsilosis", "assay": "Decrease in CGD gene ortholog accession number orf19.101 expression in Candida parapsilosis CLIB214 at 50 uM after 2 hrs by microarray based transcriptional profiling relative to control"}, "Candida parapsilosis [11]": {"test_system": "Candida parapsilosis", "assay": "Decrease in RIM21 gene expression in Candida parapsilosis CLIB214 at 50 uM after 2 hrs by microarray based transcriptional profiling relative to control"}, "Candida parapsilosis [12]": {"test_system": "Candida parapsilosis", "assay": "Decrease in DUR4 gene expression in Candida parapsilosis CLIB214 at 50 uM after 2 hrs by microarray based transcriptional profiling relative to control"}, "Candida parapsilosis [13]": {"test_system": "Candida parapsilosis", "assay": "Increase in CGD gene ortholog accession number orf19.5364 expression in Candida parapsilosis CLIB214 at 50 uM after 2 hrs by microarray based transcriptional profiling relative to control"}, "Candida parapsilosis [14]": {"test_system": "Candida parapsilosis", "assay": "Increase in CGD gene ortholog accession number orf19.6524 expression in Candida parapsilosis CLIB214 at 50 uM after 2 hrs by microarray based transcriptional profiling relative to control"}, "Candida parapsilosis [15]": {"test_system": "Candida parapsilosis", "assay": "Increase in CGD gene ortholog accession number orf19.239 expression in Candida parapsilosis CLIB214 at 50 uM after 2 hrs by microarray based transcriptional profiling relative to control"}, "Candida parapsilosis [16]": {"test_system": "Candida parapsilosis", "assay": "Decrease in PHO91 gene expression in Candida parapsilosis CLIB214 at 50 uM after 2 hrs by microarray based transcriptional profiling relative to control"}, "Candida parapsilosis [17]": {"test_system": "Candida parapsilosis", "assay": "Increase in CGD gene ortholog accession number orf19.1392 expression in Candida parapsilosis CLIB214 at 50 uM after 2 hrs by microarray based transcriptional profiling relative to control"}, "Candida parapsilosis [18]": {"test_system": "Candida parapsilosis", "assay": "Decrease in PDX3 gene expression in Candida parapsilosis CLIB214 at 50 uM after 2 hrs by microarray based transcriptional profiling relative to control"}, "Candida parapsilosis [19]": {"test_system": "Candida parapsilosis", "assay": "Decrease in CGD gene ortholog accession number orf19.4789 expression in Candida parapsilosis CLIB214 at 50 uM after 2 hrs by microarray based transcriptional profiling relative to control"}, "Candida parapsilosis [20]": {"test_system": "Candida parapsilosis", "assay": "Decrease in SGS1 gene expression in Candida parapsilosis CLIB214 at 50 uM after 2 hrs by microarray based transcriptional profiling relative to control"}, "Candida parapsilosis [21]": {"test_system": "Candida parapsilosis", "assay": "Decrease in SCT2 gene expression in Candida parapsilosis CLIB214 at 50 uM after 2 hrs by microarray based transcriptional profiling relative to control"}, "Candida parapsilosis [22]": {"test_system": "Candida parapsilosis", "assay": "Decrease in CGD gene ortholog accession number orf19.1355 expression in Candida parapsilosis CLIB214 at 50 uM after 2 hrs by microarray based transcriptional profiling relative to control"}, "Candida parapsilosis [23]": {"test_system": "Candida parapsilosis", "assay": "Increase in SMF12 gene expression in Candida parapsilosis CLIB214 at 50 uM after 2 hrs by microarray based transcriptional profiling relative to control"}, "Candida parapsilosis [24]": {"test_system": "Candida parapsilosis", "assay": "Decrease in CGD gene ortholog accession number orf19.5274 expression in Candida parapsilosis CLIB214 at 50 uM after 2 hrs by microarray based transcriptional profiling relative to control"}, "Candida parapsilosis [25]": {"test_system": "Candida parapsilosis", "assay": "Decrease in CGD gene ortholog accession number orf19.1362 expression in Candida parapsilosis CLIB214 at 50 uM after 2 hrs by microarray based transcriptional profiling relative to control"}, "Candida parapsilosis [26]": {"test_system": "Candida parapsilosis", "assay": "Increase in CGD gene ortholog accession number orf19.171 expression in Candida parapsilosis CLIB214 at 50 uM after 2 hrs by microarray based transcriptional profiling relative to control"}, "Candida parapsilosis [27]": {"test_system": "Candida parapsilosis", "assay": "Reduction in NPL4 gene expression in Candida parapsilosis CLIB214 by RT-PCR"}, "Candida parapsilosis [28]": {"test_system": "Candida parapsilosis", "assay": "Increase in CGD gene ortholog accession number orf19.1536 expression in Candida parapsilosis CLIB214 at 50 uM after 2 hrs by microarray based transcriptional profiling relative to control"}, "Candida parapsilosis [29]": {"test_system": "Candida parapsilosis", "assay": "Decrease in CYB2 gene expression in Candida parapsilosis CLIB214 at 50 uM after 2 hrs by microarray based transcriptional profiling relative to control"}, "Candida parapsilosis [30]": {"test_system": "Candida parapsilosis", "assay": "Decrease in CGD gene ortholog accession number orf19.1647 expression in Candida parapsilosis CLIB214 at 50 uM after 2 hrs by microarray based transcriptional profiling relative to control"}, "Candida parapsilosis [31]": {"test_system": "Candida parapsilosis", "assay": "Increase in CGD gene ortholog accession number orf19.2538 expression in Candida parapsilosis CLIB214 at 50 uM after 2 hrs by microarray based transcriptional profiling relative to control"}, "Candida parapsilosis [32]": {"test_system": "Candida parapsilosis", "assay": "Decrease in ADP1 gene expression in Candida parapsilosis CLIB214 at 50 uM after 2 hrs by microarray based transcriptional profiling relative to control"}, "Candida parapsilosis [33]": {"test_system": "Candida parapsilosis", "assay": "Increase in CGD gene ortholog accession number orf19.6082 expression in Candida parapsilosis CLIB214 at 50 uM after 2 hrs by microarray based transcriptional profiling relative to control"}, "Candida parapsilosis [34]": {"test_system": "Candida parapsilosis", "assay": "Decrease in CGD gene ortholog accession number orf19.1595 expression in Candida parapsilosis CLIB214 at 50 uM after 2 hrs by microarray based transcriptional profiling relative to control"}, "Candida parapsilosis [35]": {"test_system": "Candida parapsilosis", "assay": "Increase in CGD gene ortholog accession number orf19.7069 expression in Candida parapsilosis CLIB214 at 50 uM after 2 hrs by microarray based transcriptional profiling relative to control"}, "Candida parapsilosis [36]": {"test_system": "Candida parapsilosis", "assay": "Decrease in CGD gene ortholog accession number orf19.5769 expression in Candida parapsilosis CLIB214 at 50 uM after 2 hrs by microarray based transcriptional profiling relative to control"}},
  "note": "This continues a long series; more values of the same kind are listed elsewhere.",
  "data": [
    {"smiles": "CC(C)=CCC/C(C)=C/CC/C(C)=C/CO", "note": "[FARNESOL]", "values": [
      {"measurement": "fold change (FC)", "setting": "Candida parapsilosis [1]", "result": 1.6},
      {"measurement": "fold change (FC)", "setting": "Candida parapsilosis [2]", "result": 1.6},
      {"measurement": "fold change (FC)", "setting": "Candida parapsilosis [3]", "result": 1.77},
      {"measurement": "fold change (FC)", "setting": "Candida parapsilosis [4]", "result": 1.6},
      {"measurement": "fold change (FC)", "setting": "Candida parapsilosis [5]", "result": 1.7},
      {"measurement": "fold change (FC)", "setting": "Candida parapsilosis [6]", "result": 1.75},
      {"measurement": "fold change (FC)", "setting": "Candida parapsilosis [7]", "result": 1.65},
      {"measurement": "fold change (FC)", "setting": "Candida parapsilosis [8]", "result": 1.64},
      {"measurement": "fold change (FC)", "setting": "Candida parapsilosis [9]", "result": 2.84},
      {"measurement": "fold change (FC)", "setting": "Candida parapsilosis [10]", "result": 1.82},
      {"measurement": "fold change (FC)", "setting": "Candida parapsilosis [11]", "result": 1.67},
      {"measurement": "fold change (FC)", "setting": "Candida parapsilosis [12]", "result": 2.01},
      {"measurement": "fold change (FC)", "setting": "Candida parapsilosis [13]", "result": 1.52},
      {"measurement": "fold change (FC)", "setting": "Candida parapsilosis [14]", "result": 1.78},
      {"measurement": "fold change (FC)", "setting": "Candida parapsilosis [15]", "result": 1.8},
      {"measurement": "fold change (FC)", "setting": "Candida parapsilosis [16]", "result": 1.69},
      {"measurement": "fold change (FC)", "setting": "Candida parapsilosis [17]", "result": 1.5},
      {"measurement": "fold change (FC)", "setting": "Candida parapsilosis [18]", "result": 2.12},
      {"measurement": "fold change (FC)", "setting": "Candida parapsilosis [19]", "result": 2.42},
      {"measurement": "fold change (FC)", "setting": "Candida parapsilosis [20]", "result": 1.59},
      {"measurement": "fold change (FC)", "setting": "Candida parapsilosis [21]", "result": 1.91},
      {"measurement": "fold change (FC)", "setting": "Candida parapsilosis [22]", "result": 1.52},
      {"measurement": "fold change (FC)", "setting": "Candida parapsilosis [23]", "result": 1.65},
      {"measurement": "fold change (FC)", "setting": "Candida parapsilosis [24]", "result": 1.89},
      {"measurement": "fold change (FC)", "setting": "Candida parapsilosis [25]", "result": 1.78},
      {"measurement": "fold change (FC)", "setting": "Candida parapsilosis [26]", "result": 3.8},
      {"measurement": "fold change (FC)", "setting": "Candida parapsilosis [27]", "result": 1.53},
      {"measurement": "fold change (FC)", "setting": "Candida parapsilosis [28]", "result": 1.91},
      {"measurement": "fold change (FC)", "setting": "Candida parapsilosis [29]", "result": 2.32},
      {"measurement": "fold change (FC)", "setting": "Candida parapsilosis [30]", "result": 1.66},
      {"measurement": "fold change (FC)", "setting": "Candida parapsilosis [31]", "result": 1.62},
      {"measurement": "fold change (FC)", "setting": "Candida parapsilosis [32]", "result": 1.71},
      {"measurement": "fold change (FC)", "setting": "Candida parapsilosis [33]", "result": 1.65},
      {"measurement": "fold change (FC)", "setting": "Candida parapsilosis [34]", "result": 1.83},
      {"measurement": "fold change (FC)", "setting": "Candida parapsilosis [35]", "result": 1.55},
      {"measurement": "fold change (FC)", "setting": "Candida parapsilosis [36]", "result": 1.69}
    ]}
  ]
}
